Experimental data taken from PubChem BioAssay AID1487 (National Center for Advancing Translational Sciences (NCATS), 2009).
This is one part of the list. Shown are side measurements of this screen, not its main read-out; they come without a call. Compounds called inactive in the main read-out are mostly missing here. Words in brackets tell the shape of the fitted curve; partial curves, single points and poor fits give uncertain potencies.

Assay: qHTS Assay for Modulators of Lamin A Splicing
Conditions: HeLa LMNA splicing GFP/RFP minigene ratio, 48 h
Outline: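 S3 HeLa cells stably expressing lamin A-EGFP splicing minigene plus DsRed2, 600 cells/well, 48 h compound exposure at 37C. Laser-scanning cytometry; analysed as GFP (500-530 nm)/RFP (575-640 nm) total intensity ratio; 0.5% DMSO vehicle.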

[1] = measured here: GFP splicing reporter channel
[2] = measured here: RFP viability control channel

| Structure (SMILES) | AC50 [1] | AC50 [2] |
| --- | --- | --- |
| Cc1nc2c(=O)n(C)c(=O)nc-2n(C)n1 | 4.47 µM [falling, full curve] | 2 µM [falling, full curve] |
| CC1CCc2c(sc3nc(CSc4n[nH]c(N)n4)[nH]c(=O)c23)C1 (configuration not stated) | 0.0891 µM [rising, full curve, poor fit] | 0.178 µM [rising, full curve, poor fit] |
| Cc1ccccc1-c1nn2c(=O)cc(CN3CCN(C(=O)COc4ccccc4Cl)CC3)nc2s1 | 35.5 µM [falling, single point] |  |
| COc1ccc(CN2CCCC(C(=O)c3sccc3C)C2)cc1O (configuration not stated) | 2 µM [falling, single point] | 1.78 µM [falling, partial curve] |
| O=C(Nc1ccc2nc(-c3cccs3)c(-c3cccs3)nc2c1)NC1CC1 |  | 15.8 µM [rising, single point] |
| COc1cc(CCN)ccc1O |  | 0.00501 µM [falling, full curve, poor fit] |
| NC(N)=N/N=C/c1c(Cl)cccc1Cl |  | 0.00282 µM [falling, full curve, poor fit] |
| CCCN(CCC)[C@@H]1CCc2cccc(O)c2C1 | 6.31 µM [falling, partial curve, poor fit] | 0.00562 µM [falling, full curve, poor fit] |
| CC(=O)N(C1=NCCCS1)c1ccccc1Cl | 0.708 µM [falling, full curve] |  |
| C=CCn1c(O)c(C(CC)=NCc2cccnc2)c(=O)[nH]c1=O |  | 1.12 µM [rising, single point] |
| O=C(Cc1ccccc1)NC(Oc1ccccc1Cl)C(Cl)(Cl)Cl (configuration not stated) |  | 0.1 µM [rising, full curve, poor fit] |
| Cc1c2cnn(CC(=O)N3CCC4(CC3)OCCO4)c(=O)c2c(C)n1Cc1ccc(F)cc1 | 15.8 µM [rising, partial curve] | 15.8 µM [rising, partial curve] |
| N#Cc1ccccc1Cn1cc(C(=O)C2CC2)c2ccccc21 | 3.16 µM [falling, partial curve] | 5.62 µM [falling, partial curve] |
| CCCC(C)C1(CC)C(=O)NC(=Nc2ccc(F)cc2)NC1=O (configuration not stated) |  | 22.4 µM [rising, single point] |
| Cc1ccc(N2C(=O)NC(=O)/C(=C/C=C/c3ccco3)C2=O)cc1 | 22.4 µM [falling, partial curve, poor fit] | 4.47 µM [falling, partial curve, poor fit] |
| CC1CCC/C=C/C2CC(O)CC2C(O)/C=C/C(=O)O1 (configuration not stated) |  | 12.6 µM [rising, single point] |
| CCC(=NCc1ccc2c(c1)OCO2)c1c(O)n(C)c(=O)n(C)c1=O |  | 7.94 µM [rising, partial curve] |
| N#CC(C#N)=Cc1ccc(C=C(C#N)C#N)cc1 |  | 7.94 µM [falling, partial curve, poor fit] |

| Structure (SMILES) | AC50 [1] | AC50 [2] |
| --- | --- | --- |
| O=C(N/N=C/c1cccnc1)c1ccc(NC(=O)C(c2ccccc2)c2ccccc2)cc1 |  | 5.62 µM [rising, full curve] |
| Cc1cccc(NP(C)(=O)c2nc3c(s2)CCCC3)c1 (configuration not stated) |  | 0.0224 µM [falling, full curve, poor fit] |
| CCC(=Nc1ccc(OC)cc1OC)c1c(O)n(C)c(=O)n(C)c1=O |  | 10 µM [rising, partial curve] |
| COc1cc(OC)c(/C=C2/C(=O)Nc3ccccc32)c(OC)c1 | 3.16 µM [falling, full curve] | 3.98 µM [falling, full curve] |
| C=Cc1ccc(Cn2c(C(=O)O)c(C=O)c3ccccc32)cc1 |  | 0.282 µM [rising, full curve, poor fit] |
| Cc1cc(C=C2C(=O)NC(=S)NC2=O)c(C)n1-c1ccc2c(c1)OCO2 | 15.8 µM [falling, single point] | 14.1 µM [falling, single point] |
| O=C1C=CC(=O)c2c1ccc1c2ccc2ccccc21 | 11.2 µM [falling, partial curve] | 5.01 µM [falling, partial curve] |
| CN(C)C(=S)SSC(=S)N(C)C | 1.58 µM [falling, full curve] | 1 µM [falling, full curve] |
| COc1cccc(NP(=O)(Oc2ccccc2)Oc2ccccc2)c1 |  | 5.62 µM [rising, single point] |
| CCC1C(=O)OCC1Cc1cncn1C (configuration not stated) | 5.62 µM [rising, single point] | 0.282 µM [rising, full curve, poor fit] |
| C[C@@]1(CO)[C@H](O)CC[C@@]2(C)[C@H]1CC[C@H]1C[C@@H]3C[C@@]12CC[C@]3(O)CO | 0.316 µM [falling, full curve] | 0.794 µM [rising, full curve] |
| Cn1nc(-c2ccc(OCC(=O)N3CCN(Cc4ccccc4)CC3)cc2)c2ccccc2c1=O | 2 µM [rising, full curve] | 7.08 µM [rising, partial curve] |
| CC1(C(=O)O)C2CCC(O2)C1(C)C(=O)O (configuration not stated) | 2.51 µM [falling, full curve] | 2.24 µM [falling, full curve] |
| O=c1[nH]c(=O)n(CCC2=CCCCC2)c(O)c1/C=N/Nc1ccccc1 | 12.6 µM [rising, single point] | 31.6 µM [rising, single point] |
| C=CCN1C(=O)NC(=O)/C(=C\c2ccc(-c3ccccc3[N+](=O)[O-])o2)C1=O | 0.562 µM [falling, full curve, poor fit] | 0.316 µM [falling, full curve, poor fit] |
| CC(=O)NC1[C@H]([C@H](O)[C@H](O)CO)OC(C(=O)O)=C[C@H]1N=C(N)N (some centres not stated) |  | 0.631 µM [rising, full curve, poor fit] |
| C=CCN1C(=O)/C(=C/c2ccc(N3CCOCC3)o2)C(=O)NC1=S |  | 0.02 µM [falling, full curve] |

3 of the compounds above, tab-delimited:
Structure (SMILES)	AC50 [1]	AC50 [2]
O=C1C=CC(=O)c2c1ccc1c2ccc2ccccc21	11.2 µM [falling, partial curve]	5.01 µM [falling, partial curve]
CN(C)C(=S)SSC(=S)N(C)C	1.58 µM [falling, full curve]	1 µM [falling, full curve]
COc1cccc(NP(=O)(Oc2ccccc2)Oc2ccccc2)c1		5.62 µM [rising, single point]
